# Laboratory results taken from the supplement of paper PMC8728848.
# This is one part of the list.
# B1: Protein L(A-C2) (Finegoldia magna), Q51912 (protein)
# chain: ADEPIDLEKLEEKRDKENVGNLPKFDNEVKDGSENPMAKYPDFDDEASTRFETENNEFEEKKVVSDNFFDQSEHPFVENKEETPETPETDSEEEVTIKANLIFANGSTQTAEFKGTFEKATSEAYAYADTLKKDNGEYTVDVADKGYTLNIKFAGKEKTPEEPKEEVTIKANLIYADGKTQTAEFKGTFEEATAEAYRYADALKKDNGEYTVDVADKGYTLNIKFAGKEKTPEEPKEEVTIKANLIYADGKTQTAEFKGTFEEATAEAYRYADLLAKENGKYTVDVADKGYTLNIKFAGKEKTPEEPKEEVTIKANLIYADGKTQTAEFKGTFAEATAEAYRYADLLAKENGKYTADLEDGGYTINIRFAGKKVDEKPEEKEQVTIKENIYFEDGTVQTATFKGTFAEATAEAYRYADLLSKEHGKYTADLEDGGYTINIRFAGKEEPEETPEKPEVQDGYASYEEAEAAAKEALKNDDVNKSYTIRQGADGRYYYVLSPVEAEEEKPEAQNGYATYEEAEAAAKKALENDPINKSYSIRQGADGRYYYVLSPVEAE
# Assays:
# Experiment in all cases: glycan array binding signal (z-score within array); higher = stronger binding
# Conditions in all cases: glycan notation: IUPAC condensed, linker removed
# Fuc(a1-3)GlcNAc = target: Fuc(a1-3)GlcNAc
# Summary of the method: (§1)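 Glycan array binding is given as a within-array Z-score, which can be read as non-binding when negative. The arrays, 3228 of them, came from the Consortium for Functional Glycomics database and were retained only where the protein sequence was available. Z-scores were averaged across arrays of the same protein sequence at different concentrations or buffers and across linkers.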
# [1] = target: Fuc(a1-3)[Gal(b1-4)]Glc6S
# Summary of the method: as §1
# [2] = target: Fuc(a1-3)[Gal(b1-4)]GlcNAc
# Summary of the method: as §1
# [3] = target: Fuc(a1-3)[Gal(b1-4)]GlcNAc(b1-2)Man
# Summary of the method: as §1
# [4] = target: Fuc(a1-3)[Gal(b1-4)]GlcNAc(b1-2)Man(a1-3)[Fuc(a1-3)[Gal(b1-4)]GlcNAc(b1-2)Man(a1-6)]Man(b1-4)GlcNAc(b1-4)GlcNAc
# Summary of the method: as §1
# [5] = target: Fuc(a1-3)[Gal(b1-4)]GlcNAc(b1-2)Man(a1-3)[Fuc(a1-3)[Gal(b1-4)]GlcNAc(b1-2)Man(a1-6)]Man(b1-4)GlcNAc(b1-4)[Fuc(a1-6)]GlcNAc
# Summary of the method: as §1
# [6] = target: Fuc(a1-3)[Gal(b1-4)]GlcNAc(b1-3)Gal(b1-3)[Fuc(a1-4)]GlcNAc
# Summary of the method: as §1
# [7] = target: Fuc(a1-3)[Gal(b1-4)]GlcNAc(b1-3)GalNAc
# Summary of the method: as §1
# [8] = target: Fuc(a1-3)[Gal(b1-4)]GlcNAc(b1-4)Gal(b1-4)[Fuc(a1-3)]GlcNAc
# Summary of the method: as §1
# [9] = target: Fuc(a1-3)[Gal(b1-4)]GlcNAc(b1-4)Gal(b1-4)[Fuc(a1-3)]GlcNAc(b1-4)Gal(b1-4)[Fuc(a1-3)]GlcNAc
# Summary of the method: as §1
# [10] = target: Fuc(a1-3)[Gal(b1-4)]GlcNAc(b1-6)GalNAc
# Summary of the method: as §1
# [11] = target: Fuc(a1-3)[Gal(b1-4)]GlcNAc(b1-6)[Gal(b1-3)GlcNAc(b1-3)]Gal(b1-4)Glc
# Summary of the method: as §1
# [12] = target: Fuc(a1-3)[Gal(b1-4)]GlcNAc6S
# Summary of the method: as §1
# [13] = target: Fuc(a1-3)[Gal3S(b1-4)]Glc
# Summary of the method: as §1
# [14] = target: Fuc(a1-3)[Gal3S(b1-4)]GlcNAc
# Summary of the method: as §1
# [15] = target: Fuc(a1-3)[Gal3S(b1-4)]GlcNAc6S
# Summary of the method: as §1
# [16] = target: Fuc(a1-3)[GalNAc(b1-4)]GlcNAc
# Summary of the method: as §1
# [17] = target: Fuc(a1-3)[GalNAc(b1-4)]GlcNAc6S
# Summary of the method: as §1
# Fuc(a1-4)GlcNAc = target: Fuc(a1-4)GlcNAc
# Summary of the method: as §1
# Fuc(b1-3)GlcNAc = target: Fuc(b1-3)GlcNAc
# Summary of the method: as §1
# Gal(a1-2)Gal = target: Gal(a1-2)Gal
# Summary of the method: as §1
# Gal(a1-3)Gal = target: Gal(a1-3)Gal
# Summary of the method: as §1
# Gal(a1-3)Gal(b1-3)GlcNAc = target: Gal(a1-3)Gal(b1-3)GlcNAc
# Summary of the method: as §1
# [18] = target: Gal(a1-3)Gal(b1-3)GlcNAc(b1-2)Man
# Summary of the method: as §1
# [19] = target: Gal(a1-3)Gal(b1-3)GlcNAc(b1-2)Man(a1-3)[Gal(a1-3)Gal(b1-3)GlcNAc(b1-2)Man(a1-6)]Man(b1-4)GlcNAc(b1-4)GlcNAc
# Summary of the method: as §1
# [20] = target: Gal(a1-3)Gal(b1-3)GlcNAc(b1-3)GalNAc
# Summary of the method: as §1
# [21] = target: Gal(a1-3)Gal(b1-3)GlcNAc(b1-6)GalNAc
# Summary of the method: as §1
# [22] = target: Gal(a1-3)Gal(b1-3)[Fuc(a1-4)]GlcNAc(b1-2)Man(a1-3)[Gal(a1-3)Gal(b1-3)[Fuc(a1-4)]GlcNAc(b1-2)Man(a1-6)]Man(b1-4)GlcNAc(b1-4)GlcNAc
# Summary of the method: as §1
# Gal(a1-3)Gal(b1-4)Glc = target: Gal(a1-3)Gal(b1-4)Glc
# Summary of the method: as §1
# Gal(a1-3)Gal(b1-4)GlcNAc = target: Gal(a1-3)Gal(b1-4)GlcNAc
# Summary of the method: as §1
# [23] = target: Gal(a1-3)Gal(b1-4)GlcNAc(b1-2)Man
# Summary of the method: as §1
# [24] = target: Gal(a1-3)Gal(b1-4)GlcNAc(b1-2)Man(a1-3)[Gal(a1-3)Gal(b1-4)GlcNAc(b1-2)Man(a1-6)]Man(b1-4)GlcNAc(b1-4)GlcNAc
# Summary of the method: as §1
# [25] = target: Gal(a1-3)Gal(b1-4)GlcNAc(b1-3)GalNAc
# Summary of the method: as §1
# [26] = target: Gal(a1-3)Gal(b1-4)GlcNAc(b1-6)GalNAc
# Summary of the method: as §1
# [27] = target: Gal(a1-3)Gal(b1-4)[Fuc(a1-3)]GlcNAc
# Summary of the method: as §1
# [28] = target: Gal(a1-3)Gal(b1-4)[Fuc(a1-3)]GlcNAc(b1-2)Man(a1-3)[Gal(a1-3)Gal(b1-4)[Fuc(a1-3)]GlcNAc(b1-2)Man(a1-6)]Man(b1-4)GlcNAc(b1-4)GlcNAc
# Summary of the method: as §1
# Gal(a1-3)GalNAc = target: Gal(a1-3)GalNAc
# Summary of the method: as §1
# [29] = target: Gal(a1-3)[Gal(a1-4)]Gal(b1-4)GlcNAc
# Summary of the method: as §1
# [30] = target: Gal(a1-4)Gal(b1-3)GlcNAc(b1-2)Man(a1-3)[Gal(a1-4)Gal(b1-3)GlcNAc(b1-2)Man(a1-6)]Man(b1-4)GlcNAc(b1-4)GlcNAc
# Summary of the method: as §1
# Gal(a1-4)Gal(b1-4)Glc = target: Gal(a1-4)Gal(b1-4)Glc
# Summary of the method: as §1
# Gal(a1-4)Gal(b1-4)GlcNAc = target: Gal(a1-4)Gal(b1-4)GlcNAc
# Summary of the method: as §1
# [31] = target: Gal(a1-4)Gal(b1-4)GlcNAc(b1-2)Man(a1-3)[Gal(a1-4)Gal(b1-4)GlcNAc(b1-2)Man(a1-6)]Man(b1-4)GlcNAc(b1-4)GlcNAc
# Summary of the method: as §1
# [32] = target: Gal(a1-4)Gal(b1-4)GlcNAc(b1-3)Gal(b1-4)Glc
# Summary of the method: as §1
# Gal(a1-4)GlcNAc = target: Gal(a1-4)GlcNAc
# Summary of the method: as §1
# Gal(a1-6)Glc = target: Gal(a1-6)Glc
# Summary of the method: as §1
# Gal(b1-2)Gal = target: Gal(b1-2)Gal
# Summary of the method: as §1
# Gal(b1-3)Gal = target: Gal(b1-3)Gal
# Summary of the method: as §1
# Gal(b1-3)Gal(b1-4)GlcNAc = target: Gal(b1-3)Gal(b1-4)GlcNAc
# Summary of the method: as §1
# Gal(b1-3)GalNAc = target: Gal(b1-3)GalNAc
# Summary of the method: as §1
# [33] = target: Gal(b1-3)GalNAc(a1-3)[Fuc(a1-2)]Gal(b1-4)Glc
# Summary of the method: as §1
# [34] = target: Gal(b1-3)GalNAc(a1-3)[Fuc(a1-2)]Gal(b1-4)GlcNAc
# Summary of the method: as §1
# Gal(b1-3)GalNAc(b1-3)Gal = target: Gal(b1-3)GalNAc(b1-3)Gal
# Summary of the method: as §1
# [35] = target: Gal(b1-3)GalNAc(b1-3)Gal(a1-4)Gal(b1-4)Glc
# Summary of the method: as §1
# [36] = target: Gal(b1-3)GalNAc(b1-4)Gal(b1-4)Glc
# Summary of the method: as §1
# [37] = target: Gal(b1-3)GalNAc(b1-4)[Neu5Ac(a2-3)]Gal(b1-4)Glc
# Summary of the method: as §1
# Gal(b1-3)GlcNAc = target: Gal(b1-3)GlcNAc
# Summary of the method: as §1
# [38] = target: Gal(b1-3)GlcNAc(a1-3)Gal(b1-4)GlcNAc
# Summary of the method: as §1
# [39] = target: Gal(b1-3)GlcNAc(a1-6)Gal(b1-4)GlcNAc
# Summary of the method: as §1
# Gal(b1-3)GlcNAc(b1-2)Man = target: Gal(b1-3)GlcNAc(b1-2)Man
# Summary of the method: as §1
# [40] = target: Gal(b1-3)GlcNAc(b1-2)Man(a1-3)[Gal(b1-3)GlcNAc(b1-2)Man(a1-6)]Man(b1-4)GlcNAc(b1-4)GlcNAc
# Summary of the method: as §1
binder,measurement,setting,value
B1,glycan array binding signal (z-score),Fuc(a1-3)GlcNAc,0.029
same,glycan array binding signal (z-score),[1],0.92
same,glycan array binding signal (z-score),[2],-0.159
same,glycan array binding signal (z-score),[3],-0.543
same,glycan array binding signal (z-score),[4],-0.196
same,glycan array binding signal (z-score),[5],1.71
same,glycan array binding signal (z-score),[6],0.052
same,glycan array binding signal (z-score),[7],0.283
same,glycan array binding signal (z-score),[8],1.42
same,glycan array binding signal (z-score),[9],-0.73
same,glycan array binding signal (z-score),[10],1.44
same,glycan array binding signal (z-score),[11],-0.153
same,glycan array binding signal (z-score),[12],0.647
same,glycan array binding signal (z-score),[13],-0.382
same,glycan array binding signal (z-score),[14],-0.101
same,glycan array binding signal (z-score),[15],-0.228
same,glycan array binding signal (z-score),[16],1.8
same,glycan array binding signal (z-score),[17],-0.672
same,glycan array binding signal (z-score),Fuc(a1-4)GlcNAc,-0.933
same,glycan array binding signal (z-score),Fuc(b1-3)GlcNAc,-0.986
same,glycan array binding signal (z-score),Gal(a1-2)Gal,-0.485
same,glycan array binding signal (z-score),Gal(a1-3)Gal,-0.552
same,glycan array binding signal (z-score),Gal(a1-3)Gal(b1-3)GlcNAc,-0.339
same,glycan array binding signal (z-score),[18],-0.57
same,glycan array binding signal (z-score),[19],1.98
same,glycan array binding signal (z-score),[20],-0.991
same,glycan array binding signal (z-score),[21],0.196
same,glycan array binding signal (z-score),[22],0.781
same,glycan array binding signal (z-score),Gal(a1-3)Gal(b1-4)Glc,-0.965
same,glycan array binding signal (z-score),Gal(a1-3)Gal(b1-4)GlcNAc,-0.604
same,glycan array binding signal (z-score),[23],-0.252
same,glycan array binding signal (z-score),[24],1.8
same,glycan array binding signal (z-score),[25],-0.633
same,glycan array binding signal (z-score),[26],-0.284
same,glycan array binding signal (z-score),[27],-0.572
same,glycan array binding signal (z-score),[28],-0.563
same,glycan array binding signal (z-score),Gal(a1-3)GalNAc,0.433
same,glycan array binding signal (z-score),[29],0.709
same,glycan array binding signal (z-score),[30],-0.145
same,glycan array binding signal (z-score),Gal(a1-4)Gal(b1-4)Glc,0.175
same,glycan array binding signal (z-score),Gal(a1-4)Gal(b1-4)GlcNAc,0.429
same,glycan array binding signal (z-score),[31],0.139
same,glycan array binding signal (z-score),[32],-0.164
same,glycan array binding signal (z-score),Gal(a1-4)GlcNAc,-0.666
same,glycan array binding signal (z-score),Gal(a1-6)Glc,-0.368
same,glycan array binding signal (z-score),Gal(b1-2)Gal,-0.895
same,glycan array binding signal (z-score),Gal(b1-3)Gal,-0.494
same,glycan array binding signal (z-score),Gal(b1-3)Gal(b1-4)GlcNAc,-0.162
same,glycan array binding signal (z-score),Gal(b1-3)GalNAc,-0.601
same,glycan array binding signal (z-score),[33],-0.058
same,glycan array binding signal (z-score),[34],-0.69
same,glycan array binding signal (z-score),Gal(b1-3)GalNAc(b1-3)Gal,-0.316
same,glycan array binding signal (z-score),[35],1.28
same,glycan array binding signal (z-score),[36],-0.346
same,glycan array binding signal (z-score),[37],-0.392
same,glycan array binding signal (z-score),Gal(b1-3)GlcNAc,0.128
same,glycan array binding signal (z-score),[38],-0.681
same,glycan array binding signal (z-score),[39],-0.555
same,glycan array binding signal (z-score),Gal(b1-3)GlcNAc(b1-2)Man,-0.225
same,glycan array binding signal (z-score),[40],-0.018

# In a second layout: entries from further up
binder	measurement	setting	value
B1	glycan array binding signal (z-score)	[33]	-0.058
same	glycan array binding signal (z-score)	[34]	-0.69
